Reference: PMC8511950
No constants are given. Whether binding was seen depends on the method and setting. Binding seen in cells or lysates may run through a third protein. Some binding calls cover weakened binding; strength is not graded here. One block for each binder: values may come before it.

By UniProt entry, the sequences of proteins in these tests, tags left out.
UniProt P16370: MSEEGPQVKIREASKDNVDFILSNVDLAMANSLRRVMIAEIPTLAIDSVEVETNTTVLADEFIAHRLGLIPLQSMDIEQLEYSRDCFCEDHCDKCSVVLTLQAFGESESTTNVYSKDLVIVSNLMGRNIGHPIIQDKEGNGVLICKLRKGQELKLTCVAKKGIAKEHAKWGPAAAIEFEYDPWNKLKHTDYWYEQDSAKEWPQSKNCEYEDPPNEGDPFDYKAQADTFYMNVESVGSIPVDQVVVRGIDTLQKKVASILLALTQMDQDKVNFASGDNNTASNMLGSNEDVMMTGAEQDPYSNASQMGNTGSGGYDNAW

Legend:
[1] = biological target: FLAG-tagged Rpb3 (S. cerevisiae) (UniProt P16370); experiment: co-IP; Rpb3-FLAG precipitated with anti-Flag agarose from whole cell lysates of uncrosslinked wildtype and spt6-1004 cells at 30 °C and after the shift to 37 °C; IP buffer 20 mM Hepes-KOH pH 7.6, 125 mM potassium acetate, 1% NP-40; 2 h at 4 °C; Western blot
[2] = biological target: Rpb3 with C-terminal BioTAP tag (S. cerevisiae) (UniProt P16370); experiment: pull-down; BioTAP-XL two-step purification of Rpb3-BioTAP (IgG beads, then streptavidin agarose) from 1% formaldehyde-cross-linked, sonicated cells shifted to 37 °C for 80 min; Western blot at the stages of purification; untagged cells as control

B1: Iwr1 (protein, UniProt Q07532 1-353)
chain: MSTISTTTAPEFIRVKRRRDEDSVQALLIDEGKRVKKQKFIFKLSKTVSSESYQSEQESSTPLLKLAHEDHRHFVLEQRKKSRRDSDDEKSQQRLAAEGSTVDDDGLPPEINQMVNDYLKLNKGVEKTERKKPSRKYFTGDSAKIASLPSLDYVFDIYHLEKIHDDEVARYNNEKNIGFVKIIEHIDLALDEESDPNEARSDDEDSNDENYYQNDYPEDEDDDRSILFGSEGEDIAALGEEIVIGVNKSRFSSWNDDKIQGSNGYHDVEEEYGDLFNRLGGKSDVLKSINSSNFIDLDGQEGEIEISDNEDDSDEGDDIEYPRNEFFPTDVDDPLAHHRDRIFHQLQKKINRS
binding [1]: binds

B2: Set2 (enzyme, UniProt P46995 1-733)
chain: MSKNQSVSASEDEKEILNNNAEGHKPQRLFDQEPDLTEEALTKFENLDDCIYANKRIGTFKNNDFMECDCYEEFSDGVNHACDEDSDCINRLTLIECVNDLCSSCGNDCQNQRFQKKQYAPIAIFKTKHKGYGVRAEQDIEANQFIYEYKGEVIEEMEFRDRLIDYDQRHFKHFYFMMLQNGEFIDATIKGSLARFCNHSCSPNAYVNKWVVKDKLRMGIFAQRKILKGEEITFDYNVDRYGAQAQKCYCEEPNCIGFLGGKTQTDAASLLPQNIADALGVTVSMEKKWLKLKKLSGEPIIKNENENINIEFLQSLEVQPIDSPVDVTKIMSVLLQQDNKIIASKLLKRLFTIDDDSLRHQAIKLHGYTCFSKMLKLFITEQPQVDGKGNETEEDDIKFIKGILDFLLELPKTTRNGIESSQIDNVVKTLPAKFPFLKPNCDELLEKWSKFETYKRITKKDINVAASKMIDLRRVRLPPGWEIIHENGRPLYYNAEQKTKLHYPPSGSSKVFSSRSNTQVNSPSSSGIPKTPGALDSKKHKLSDEEYERKKQKRLEYERIALERAKQEELESLKQKLKLENERKSVLEDIIAEANKQKELQKEEAKKLVEAKEAKRLKRKTVSQSQRLEHNWNKFFASFVPNLIKKNPQSKQFDHENIKQCAKDIVKILTTKELKKDSSRAPPDDLTKGKRHKVKEFINSYMDKIILKKKQKKALALSSASTRMSSPPPSTSS
binding [1]: binds

Further lines, results first:

binding [2]: binds
binding [1]: binds
B3: Spt5 (protein, UniProt P27692 1-1063)
chain: MSDNSDTNVSMQDHDQQFADPVVVPQSTDTKDENTSDKDTVDSGNVTTTESTERAESTSNIPPLDGEEKEAKSEPQQPEDNAETAATEQVSSSNGPATDDAQATLNTDSSEANEIVKKEEGSDERKRPREEDTKNSDGDTKDEGDNKDEDDDEDDDDDDDDEDDDDEAPTKRRRQERNRFLDIEAEVSDDEDEDEDEEDSELVREGFITHGDDEDDEASAPGARRDDRLHRQLDQDLNKTSEEDAQRLAKELRERYGRSSSKQYRAAAQDGYVPQRFLLPSVDTATIWGVRCRPGKEKELIRKLLKKKFNLDRAMGKKKLKILSIFQRDNYTGRIYIEAPKQSVIEKFCNGVPDIYISQKLLIPVQELPLLLKPNKSDDVALEEGSYVRIKRGIYKGDLAMVDQISENNLEVMLKIVPRLDYGKFDEIDPTTQQRKSRRPTFAHRAPPQLFNPTMALRLDQANLYKRDDRHFTYKNEDYIDGYLYKSFRIQHVETKNIQPTVEELARFGSKEGAVDLTSVSQSIKKAQAAKVTFQPGDRIEVLNGEQRGSKGIVTRTTKDIATIKLNGFTTPLEFPISTLRKIFEPGDHVTVINGEHQGDAGLVLMVEQGQVTFMSTQTSREVTITANNLSKSIDTTATSSEYALHDIVELSAKNVACIIQAGHDIFKVIDETGKVSTITKGSILSKINTARARVSSVDANGNEIKIGDTIVEKVGSRREGQVLYIQTQQIFVVSKKIVENAGVFVVNPSNVEAVASKDNMLSNKMDLSKMNPEIISKMGPPSSKTFQQPIQSRGGREVALGKTVRIRSAGYKGQLGIVKDVNGDKATVELHSKNKHITIDKHKLTYYNREGGEGITYDELVNRRGRVPQARMGPSYVSAPRNMATGGIAAGAAATSSGLSGGMTPGWSSFDGGKTPAVNAHGGSGGGGVSSWGGASTWGGQGNGGASAWGGAGGGASAWGGQGTGATSTWGGASAWGNKSSWGGASTWASGGESNGAMSTWGGTGDRSAYGGASTWGGNNNNKSTRDGGASAWGNQDDGNRSAWNNQGNKSNYGGNSTWGGH

binding [1]: binds
B4: Spn1 (protein, UniProt Q06505 1-410)
chain: MSTADQEQPKVVEATPEDGTASSQKSTINAENENTKQNQSMEPQETSKGTSNDTKDPDNGEKNEEAAIDENSNVEAAERKRKHISTDFSDDDLEKEEHNDQSLQPTVENRASKDRDSSATPSSRQELEEKLDRILKKPKVRRTRRDEDDLEQYLDEKILRLKDEMNIAAQLDIDTLNKRIETGDTSLIAMQKVKLLPKVVSVLSKANLADTILDNNLLQSVRIWLEPLPDGSLPSFEIQKSLFAALNDLPVKTEHLKESGLGRVVIFYTKSKRVEAQLARLAEKLIAEWTRPIIGASDNYRDKRIMQLEFDSEKLRKKSVMDSAKNRKKKSKSGEDPTSRGSSVQTLYEQAAARRNRAAAPAQTTTDYKYAPVSNLSAVPTNARAVGVGSTLNNSEMYKRLTSRLNKKHK
